Results on two molecules are retold here after US7422745 (IXSYS, dated 2008).

These are yes or no findings as the source states them, for the method shown. A result given as binding can be weak or reduced; the word gives no strength.

In the test the target is integrin αvβ3 (human vitronectin receptor), purified from human placenta (human). Description: ELISA titration of bacterial cell lysate containing Fab on immobilized αvβ3, detection with goat anti-human kappa-alkaline phosphatase.

B1: LM609 grafted antibody variant Y100 (Fab, V domains shown)
VH: QVQLVESGGGVVQPGRSLRLSCAASGFTFSSYDMSWVRQAPGKGLEWVAKVSSGGGSTYYLDTVQGRFTISRDNSKNTLYLQMNSLRAEDTAVYYCARHNYGSYAYWGQGTTVTVSS
VL: EIVLTQSPATLSLSPGERATLSCQASQSISNHLHWYQQRPGQAPRLLIRYRSQSISGIPARFSGSGSGTDFTLTISSLEPEDFAVYYCQQSGSWPHTFGGGTKVEIK
For the molecule B1, the binding entry was “binds”.

B2: LM609 grafted antibody variant Y101 (Fab, V domains shown)
VH: QVQLVESGGGVVQPGRSLRLSCAASGFTFSSYDMSWVRQAPGKGLEWVAKVSSGGGSTYYLDTVQGRFTISRDNSKNTLYLQMNSLRAEDTAVYYCARHNYGSFYYWGQGTTVTVSS
VL: EIVLTQSPATLSLSPGERATLSCQASQSISNHLHWYQQRPGQAPRLLIRYRSQSISGIPARFSGSGSGTDFTLTISSLEPEDFAVYYCQQSGSWPHTFGGGTKVEIK
As to B2, the binding result is reported as “binds”.
